Drawing on publication PMC12325296, this text covers binding for 4 substances.

Protein sequences, listed by entry. Tags and fused reporters are not part of them.
UniProt Q13148: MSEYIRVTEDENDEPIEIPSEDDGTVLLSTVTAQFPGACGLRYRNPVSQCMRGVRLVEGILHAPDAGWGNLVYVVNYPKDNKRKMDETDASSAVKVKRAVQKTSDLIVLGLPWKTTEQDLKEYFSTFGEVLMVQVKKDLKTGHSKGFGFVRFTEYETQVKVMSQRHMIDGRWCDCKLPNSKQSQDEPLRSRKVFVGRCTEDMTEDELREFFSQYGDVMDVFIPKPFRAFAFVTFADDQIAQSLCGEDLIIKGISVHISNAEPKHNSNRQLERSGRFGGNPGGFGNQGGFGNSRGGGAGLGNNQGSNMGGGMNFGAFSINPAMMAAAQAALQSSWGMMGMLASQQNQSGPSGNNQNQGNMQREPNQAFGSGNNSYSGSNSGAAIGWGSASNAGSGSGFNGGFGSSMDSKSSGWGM
UniProt O00505: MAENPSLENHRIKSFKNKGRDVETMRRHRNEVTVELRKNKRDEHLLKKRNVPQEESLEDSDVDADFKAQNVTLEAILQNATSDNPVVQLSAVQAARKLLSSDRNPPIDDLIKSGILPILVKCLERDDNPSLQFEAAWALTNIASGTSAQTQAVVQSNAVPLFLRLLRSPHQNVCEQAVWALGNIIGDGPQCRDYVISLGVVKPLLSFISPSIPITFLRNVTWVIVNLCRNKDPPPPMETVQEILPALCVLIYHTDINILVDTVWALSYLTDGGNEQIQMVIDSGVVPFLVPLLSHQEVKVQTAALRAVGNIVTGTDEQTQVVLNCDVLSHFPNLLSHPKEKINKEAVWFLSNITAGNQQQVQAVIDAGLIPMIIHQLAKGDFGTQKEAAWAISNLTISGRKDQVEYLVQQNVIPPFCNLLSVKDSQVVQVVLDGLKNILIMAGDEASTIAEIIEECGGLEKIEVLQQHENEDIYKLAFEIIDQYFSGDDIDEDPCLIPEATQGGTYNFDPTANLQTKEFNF
UniProt P52294: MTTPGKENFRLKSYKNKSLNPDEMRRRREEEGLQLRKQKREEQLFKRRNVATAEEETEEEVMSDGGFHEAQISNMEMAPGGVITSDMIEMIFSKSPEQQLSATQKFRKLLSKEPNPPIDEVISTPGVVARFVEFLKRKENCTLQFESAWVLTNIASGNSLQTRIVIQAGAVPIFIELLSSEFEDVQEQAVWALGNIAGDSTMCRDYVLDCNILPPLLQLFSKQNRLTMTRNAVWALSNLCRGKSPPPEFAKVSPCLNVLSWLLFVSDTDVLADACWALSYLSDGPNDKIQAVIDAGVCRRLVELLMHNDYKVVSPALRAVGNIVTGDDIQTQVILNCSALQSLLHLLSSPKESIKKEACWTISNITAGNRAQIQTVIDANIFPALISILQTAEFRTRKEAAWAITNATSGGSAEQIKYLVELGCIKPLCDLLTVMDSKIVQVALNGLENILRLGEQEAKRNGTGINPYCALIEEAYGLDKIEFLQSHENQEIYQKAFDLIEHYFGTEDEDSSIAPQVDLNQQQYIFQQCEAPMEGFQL
UniProt O00629: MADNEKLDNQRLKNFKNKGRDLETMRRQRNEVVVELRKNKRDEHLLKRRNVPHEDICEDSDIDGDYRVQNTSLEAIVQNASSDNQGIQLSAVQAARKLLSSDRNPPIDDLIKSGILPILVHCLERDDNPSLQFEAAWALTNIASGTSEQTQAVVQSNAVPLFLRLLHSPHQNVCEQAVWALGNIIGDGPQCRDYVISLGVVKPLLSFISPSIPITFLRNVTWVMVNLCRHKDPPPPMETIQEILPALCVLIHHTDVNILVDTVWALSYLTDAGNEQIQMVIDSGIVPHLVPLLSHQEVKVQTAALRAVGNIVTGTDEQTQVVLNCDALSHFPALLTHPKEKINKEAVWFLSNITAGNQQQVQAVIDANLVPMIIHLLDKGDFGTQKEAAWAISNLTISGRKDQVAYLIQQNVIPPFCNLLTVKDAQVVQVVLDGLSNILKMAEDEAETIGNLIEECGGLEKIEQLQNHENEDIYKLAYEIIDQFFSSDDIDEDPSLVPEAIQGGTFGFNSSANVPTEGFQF

In this experiment the target is BioID2-Myc-TDP-43 (human wildtype TDP-43 fused to biotin ligase BioID2) (human) (UniProt Q13148). As to the kind of experiment: proximity labelling; BioID2 proximity biotinylation in stable Flp-In HEK293 cell lines expressing BioID2 fused to TDP-43 (wildtype or ΔNLS) or control BioID2; pulldown using BioID2 as bait, then immunostaining for endogenous KPNAs.

Results are given in words; binding and its absence hold for the method and conditions named. In cells and extracts the contact can be indirect. A yes stands for co-enrichment or nearness to the bait. Other partners may have been found. No binding means not detected with the bait.

In the case of KPNA3 (from UniProt O00505 1-521), the binding result was “binds”. For KPNA1 (from UniProt P52294 1-538), the binding entry was “binds”. The same measure for “karyopherin-α4 (KPNA4) (from UniProt O00629 1-521)”: “binds”; for KPNA6 (from UniProt O60684 1-536): “no binding”.
